Taken from: PubChem BioAssay AID1259254 (NCATS, 2017)

Screen: 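Finding genes that stop cells copying their DNA twice in one cycle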 (primary screen)
System: human HCT116 colorectal cancer cells
Knock-down reagent: single siRNA against human genes
Time to read-out: 3 days
Measurement: 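Imaged Hoechst DNA stain sorts each cell into a cycle phase by DNA amount; per plate, G2 fraction set to 0% for non-targeting and 100% for GMNN siRNA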
Scale: G2 robust z-score: higher = more G2 cells, more excess DNA replication
Hit rule: 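An siRNA counts as active if its G2 robust z-score lies at least 5 MADs above the screen median; here such calls match roughly 38% of GMNN control or more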
In all, the deposit lists about 59,000 reagents; this is a random part of them. About 1,550 of all reagents (2.6%) were called active. 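G2 share is only a proxy for re-replication; each gene was hit by three separate siRNAs, and active genes were retested.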 Reagents against one gene are numbered here. Further read-outs or replicates are left out here. The record does not give: the amount of reagent.

no.	Gene	siRNA no.	G2 robust z-score	Call
1	BBS2	1	1.26	inactive
2	BBS2	2	-0.499	inactive
3	BBS2	3	0.0803	inactive
4	OR13C3	1	-0.832	inactive
5	OR13C3	2	2.19	inactive
6	OR13C3	3	-0.11	inactive
7	SLC25A38P1	1	0.661	inactive
8	SLC25A38P1	2	1.48	inactive
9	SLC25A38P1	3	-0.00483	inactive
10	IRAK1BP1	1	0.752	inactive
11	IRAK1BP1	2	0.658	inactive
12	IRAK1BP1	3	1.88	inactive
13	ACACA	1	0.109	inactive
14	ACACA	2	-1.19	inactive
15	ACACA	3	-0.68	inactive
16	YIPF3	1	4.88	inactive
17	YIPF3	2	-0.235	inactive
18	YIPF3	3	-0.525	inactive

Next part; the last 3 above are carried over.
no.	Gene	siRNA no.	G2 robust z-score	Call
16	YIPF3	1	4.88	inactive
17	YIPF3	2	-0.235	inactive
18	YIPF3	3	-0.525	inactive
19	LILRA6	1	0.339	inactive
20	LILRA6	2	1.43	inactive
21	LILRA6	3	1.22	inactive
22	DACT1	1	-0.999	inactive
23	DACT1	2	0.29	inactive
24	DACT1	3	-0.679	inactive
25	CRCT1	1	-0.612	inactive
26	CRCT1	2	-1.46	inactive
27	CRCT1	3	6.33	active
28	FAS	1	5.3	active
29	FAS	2	-0.146	inactive
30	FAS	3	-0.887	inactive
